The supplement of paper PMC8326762, “A Small Molecule Inhibitor of Pex3–Pex19 Interaction Disrupts Glycosome Biogenesis and Causes Lethality in Trypanosoma brucei” (Frontiers in Cell and Developmental Biology, 2021)
Structures can show the parent of a compound that is named as a salt. The list shows a part of the results. The data scatter; read single values as rough.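 Yeast growth was measured as optical density at 600 nm. Two-hybrid strains grew without histidine, so growth depended on Pex3–Pex19 binding. A compound was trypanosome-selective if it reduced growth of the trypanosome-pair strain by over 65% and of the human-pair strain by under 65%.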

What was measured:
[1] = system: Saccharomyces cerevisiae HF7c pdr5Δ; assay: general growth inhibition of yeast HF7c pdr5Δ in -Leu -Trp medium, relative to DMSO; higher = stronger general growth inhibition; conditions: 100 µM; 24 h
[2] = system: human PEX3-PEX19 interaction (yeast two-hybrid); assay: growth inhibition of yeast two-hybrid strain reporting HsPex3-HsPex19 interaction, relative to DMSO; higher = stronger inhibition of human Pex3-Pex19 interaction / growth; conditions: 100 µM; 24 h; 3-aminotriazole 10 mM
[3] = system: T. brucei Pex3-Pex19 interaction (yeast two-hybrid); assay: growth inhibition of yeast two-hybrid strain reporting TbPex3-TbPex19 interaction, relative to DMSO; higher = stronger inhibition of T. brucei Pex3-Pex19 interaction / growth; conditions: 100 µM; 24 h

## C[N+](C)(C)CC#CCOC(=O)Nc1cccc(Cl)c1
[1]
  general growth inhibition: 55.5%
[2]
  growth inhibition: 45.8%
[3]
  growth inhibition: 67.9%

## O=[N+]([O-])c1cc(O)c(O)c([N+](=O)[O-])c1 [3,5-Dinitrocatechol]
[1]
  general growth inhibition: 17.7%
[2]
  growth inhibition: 26.8%
[3]
  growth inhibition: 47.7%

## NC(N)=NOCC[C@H](N)C(=O)O [L-Canavanine sulfate]
[1]
  general growth inhibition: 10.7%
[2]
  growth inhibition: 8.18%
[3]
  growth inhibition: 31.9%

## C#CCN[C@H](C)Cc1ccccc1 [R-(-)-Desmethyldeprenyl hydrochloride]
[1]
  general growth inhibition: 31%
[2]
  growth inhibition: 31.7%
[3]
  growth inhibition: 52.3%

## N#CC(C#N)=Cc1ccc(O)c(O)c1 [Tyrphostin 23]
[1]
  general growth inhibition: 61.7%
[2]
  growth inhibition: 52.3%
[3]
  growth inhibition: 67.6%

## CC(C)c1cccc(C(C)C)c1O [Propofol]
[1]
  general growth inhibition: 34.1%
[2]
  growth inhibition: 41.9%
[3]
  growth inhibition: 49.5%

## CN1[C@@H]2C[C@@H](OC(=O)[C@H](CO)c3ccccc3)C[C@H]1[C@H](O)C2 (racemic) [(+/-)-Anisodamine]
[1]
  general growth inhibition: 35.2%
[2]
  growth inhibition: 22.9%
[3]
  growth inhibition: 60.4%

## Cc1cccc(C)c1NC(=O)CN1CCCC1=O [Nefiracetam]
[1]
  general growth inhibition: 41.7%
[2]
  growth inhibition: 43.1%
[3]
  growth inhibition: 64.7%

## COC(=O)C1=CCCN(C)C1 [Arecoline hydrobromide]
[1]
  general growth inhibition: 49.9%
[2]
  growth inhibition: 42.3%
[3]
  growth inhibition: 58%

## COc1ccc(Cc2nccc3cc(OC)c(OC)cc23)cc1OC [Papaverine hydrochloride]
[1]
  general growth inhibition: 8.4%
[2]
  growth inhibition: 12.2%
[3]
  growth inhibition: 32.6%

## O=c1[nH]c2ccccc2n1CCCN1CCC(n2c(=O)[nH]c3cc(Cl)ccc32)CC1 [Domperidone]
[1]
  general growth inhibition: 33.2%
[2]
  growth inhibition: 28.4%
[3]
  growth inhibition: 62.4%

## C[N+]1(C)CCN(c2ccccc2)CC1 [1,1-Dimethyl-4-phenyl-piperazinium iodide]
[1]
  general growth inhibition: 15.8%
[2]
  growth inhibition: 37.3%
[3]
  growth inhibition: 53%
